Reference: PubChem BioAssay AID1794844 (National Center for Advancing Translational Sciences (NCATS), 2023)
Fewer than 10 of roughly 2,800 compounds were called active. Not shown: some 7% with an inconclusive outcome. The call rests on the fitted dose curve; in most records, active means well fitted inhibition curve with a large enough effect; inconclusive means small, poorly fitted or top-dose-only effect; inactive means no such curve, though single readings can be large or run the other way. Some of the results follow.

Protein sequences, listed by entry. Tags and fused reporters are not part of them. Lines headed by an entry give the natural chain unless they say otherwise; changes in a name come on top.
UniProt C7C422: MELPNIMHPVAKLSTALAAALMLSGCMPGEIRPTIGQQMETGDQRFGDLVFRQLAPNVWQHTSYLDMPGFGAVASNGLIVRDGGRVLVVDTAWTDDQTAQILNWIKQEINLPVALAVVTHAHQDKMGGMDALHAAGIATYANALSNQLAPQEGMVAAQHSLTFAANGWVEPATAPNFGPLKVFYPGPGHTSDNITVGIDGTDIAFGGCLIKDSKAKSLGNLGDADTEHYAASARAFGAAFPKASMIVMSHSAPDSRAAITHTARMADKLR

Each compound was assayed against Metallo-beta-lactamase type 2 (Klebsiella pneumoniae) (UniProt C7C422) (assay: qHTS to identify inhibitors of the New Delhi Metallo-beta-lactamase (NDM): Nitrocefin screen against the machine-based learning selections.). Details: NDM-1 enzyme, nitrocefin hydrolysis, absorbance 485 nm; activity, negative = inhibition: at the top concentration.
Excerpt: Assay Submitter (PI): James Inglese Ph.D., Patricia Dranchak Ph.D., Mahesh Aitha Ph.D. Assay Development and Screening Technology Laboratory (ADST) National Center for Advancing Translational Sciences (NCATS), Rockville, MD National Institute of Health (NIH), Bethesda, Maryland The metallo-beta-lactamases (MBL) are a main antibiotic resistance mechanism evolved by bacteria. There is an urgent clinical need for MBL inhibitors to mitigate this growing threat. To support a machine-based learning study, qHTS has been used to experimentally test inhibitors identified by prediction tools.
PROTOCOL TABLE (as described by Inglese et al., 2007) SEQUENCE No. (e.g., 1, 2, 3, etc.); […] (e.g., enzyme, Incubation, Reagent, etc.); VALUE; DESCRIPTION Primary Screen 1; NDM-1; 4 uL of 3 nM enzyme [2 nM final] in 50 mM HEPES (pH 7.0), 1 uM […], 0.01% Tween20; Use BioRaptr to dispense into two sets of Aurora black, clear bottom high base 1536-well plates 2; Compounds; 23 nL; Use Pin Tool (Wako) to transfer DMSO control and library compounds in DMSO 3; Incubate; >30 min 4a; Reagent; 2 uL of 50 uM nitrocefin [16.7 uM final] to one set of assay plates 4b; Reagent; 2 uL of 150 uM meropenem [50 uM final] to second set of assay plates 5a; Incubate; 15 min 5b; Incubate; 30 min 6a; Detector; Absorbance at 485 nm (bandwidth = 5 nm, 25 flashes/well) on Tecan Infinity 6b; Detector; Absorbance at 300 nm (bandwidth = 5 nm, 25 flashes/well) on Tecan Infinity NOTES (numbers refer to sequence above) 1; Column 1 of each plate received assay buffer without enzyme and columns 2-48 received enzyme for a final assay concentration of 2 nM. 2; Control plate contained DMSO in columns 1, 2, 3, and 4. 3; Compound interaction with enzyme. 4; Nitrocefin and meropenem substrates were prepared in the same assay buffer as step 1 for a final assay concentration of 16.7 uM and 50 uM, respectively, and added to all wells across respective sets of assay plates. 5; Default reader settings were applied for absorbance read at 485 nm (nitrocefin) or 300 nm (meropenem), bandwidth = 5 nm, 25 flashes/well. References: Inglese J, Shamu CE, Guy RK. 2007. Reporting data from high-throughput screening of small-molecule libraries. Nat Chem Biol. doi:10.1038/nchembio0807-438 Yasgar A, Shinn P, Jadhav A, Auld D, Michael S, Zheng W, Austin CP, Inglese J, Simeonov A. 2008. Compound Management for Quantitative High-Throughput Screening. J Lab Autom 13:79 - 89. doi:10.1016/j.jala.2007.12.004
Further: % of control where 0% means no effect.

activity, negative = inhibition, inactive:
COc1ccc(CN2C(=O)CO[C@H](c3ccc(NC(=O)NC(C)(C)C)cc3)[C@H]2CO)cc1 2.65%
COc1ccc(CCC(=O)N2CCCN(c3cc(-c4ccc(Br)cc4)[nH]n3)CC2)cc1 -5.46%
CN1CCCC1c1nc(C2CN(C(=O)CCCc3c[nH]c4ccccc34)C2)no1 (stereo unspecified) 4.48%
COCCNC(=O)CC[C@]12CC[C@](C)(O)C[C@H]1C(C)(C)C[C@@H]2NC(=O)c1ccc(C(F)(F)F)cc1 1.98%
O=C(NCc1ccc(F)cc1)c1cc(-c2ccc[nH]2)n[nH]1 -11.9%
Cc1noc(-c2ccc(OC3CN(C(=O)CCCc4ccccc4)C3)cc2)n1 0.841%
COCc1nc(-c2ccc(OC3CCN(S(=O)(=O)c4c(C)noc4C)C3)cc2)no1 (stereo unspecified) -2.86%
COc1ccc(CN2C[C@@H](F)[C@@H](OCc3nc4ccc(C)cc4[nH]3)C2)cc1 -0.27% [at 57.5 µM]
COc1ccc(C(=O)NC2CCN(c3cc(-c4ccc(Cl)cc4)[nH]n3)C2)cc1OC (stereo unspecified) -11.8%
COc1ccc(-c2[nH]nc3ncc(C(=O)NCCc4ccccc4)nc23)c(C)c1 10% [at 57.5 µM]
C[C@H](O)c1c(-c2ccc(F)cc2)noc1C(=O)N1CCC1 1.94% [at 76.7 µM]
Cc1nn(C)c2ncc(C(=O)O)c(NC3CC(c4cc(=O)[nH]cn4)C3)c12 (stereo unspecified) -6.8%
O=C(CC[C@H]1NC(=O)c2ccccc2NC1=O)Nc1nc2c(s1)CCC2 -5.89%
Cc1ccc(C2(O)CCN(C(=O)[C@@H](N)Cc3cnc[nH]3)CC2)nc1 -1.53%
F[C@@H]1CN(C2CCC2)C[C@@H]1OCc1nc2ncccc2[nH]1 -1.72% [at 76.7 µM]
CC[C@H]1CN(S(=O)(=O)c2c(C)noc2C)CC[C@H]1CC(=O)NCc1ccco1 8.36% [at 57.5 µM]
C[C@@H](NC(=O)c1cccs1)c1onc(-c2ccc(F)cc2)c1C(=O)O -1.6% [at 57.5 µM]
CN1Cc2ccc(Nc3ccccc3)nc2C(C)(C(=O)NCCc2cnc[nH]2)C1 (stereo unspecified) 1.99% [at 57.5 µM]
C=CCO[C@@H]1C[C@H]2C(=O)Nc3ccc(-c4ccc(F)cc4F)cc3C(=O)N2C1 2.98% [at 57.5 µM]
Nc1nc(C2CC(O)C2)cc(N2CCC(CCN3CCCC3=O)CC2)n1 (stereo unspecified) 4.84%
O=C(Nc1ccc(C2(C(=O)NCc3ccco3)CCCCC2)cc1)C1CC1 11.8%
NC(=O)c1cccnc1N1CCC2(CCCN(Cc3cccc(F)c3F)C2)C1 (stereo unspecified) 63.7%
CCC(CC)C(=O)N1CCC(N2C(=O)C3(CCCCC3)C2c2ccncc2)CC1 (stereo unspecified) 0.833%
CSCC(=O)N1C[C@@H](NC(=O)Nc2ccc(F)cc2F)C[C@H]1C(=O)N[C@@H](Cc1cccs1)C(N)=O -3.42%
N#Cc1cccc(CN2CCOC[C@H]2c2ncc(-c3ccccc3)[nH]2)c1 1.13% [at 57.5 µM]
CN1CCCn2nc(C(=O)NC34CC5CC(CC(C5)C3)C4)cc2C1 20%
O=C(c1cc(-c2ccncc2)n[nH]1)N1CCC2(CC1)Nc1ccccc1NC2=O -14.3%
CC(C)c1nc2c(c(-c3ccc(O)cc3)n1)CN(C(=O)c1ccccc1F)CC2 0.446%
COCCNS(=O)(=O)c1cc(C(=O)O)cc(-c2ccncc2)c1 -1.19%
CC(=O)N1CCC(N2CCC[C@H]2c2nc(-c3ccnc(N4CCC(C(N)=O)CC4)c3)no2)CC1 -1.02%
COCc1noc(CC2CCOC3(CCN(C(=O)NC4CCCCC4)CC3)C2)n1 (stereo unspecified) 11%
CCN(C(=O)Cn1nc2n(c1=O)CCCCC2)c1ccccc1 -8.61%
Cc1cccc(CC(C)NC(=O)c2ccc3nc(Cc4ccccc4F)oc3c2)n1 (stereo unspecified) -2.71%
c1coc(CN[C@H]2CO[C@H]3[C@@H]2OC[C@@H]3n2nnnc2Oc2ccc(-n3cncn3)cc2)c1 0.154%
COCC(=O)Nc1nc2c(s1)C[C@@H]1[C@](C)(CO)[C@H](O)CC[C@@]1(C)[C@@H]2CC(=O)NCc1cccnc1 1.09%
CN1[C@@H](CCC(=O)N2CCOCC2)CNC(=O)[C@@H]2[C@H]1CCN2Cc1cccc(OC(F)(F)F)c1 -10.5%
Cc1ccc(NC(=O)N[C@@H]2C=C(C(=O)N[C@H](CC(C)C)C(N)=O)C[C@@H](O)[C@@H]2O)cc1 2.2% [at 57.5 µM]
Cc1[nH]c2c(c1C(=O)N1CCCC(CCc3ccc(F)cc3)C1)C(=O)CCC2 (stereo unspecified) -1.72%
COCCCNc1ccc(C(=O)N2CCC(CN3CCCC3=O)CC2)cn1 2.58%
Cc1ccc(C(c2cccnc2)n2cc(-c3cncnc3)nn2)cc1C (stereo unspecified) -3.58%
CCC1(N2CCN(C(=O)CCc3c[nH]c4ccccc34)CC2)CCN(C(=O)NC)C1 (stereo unspecified) 3.42%
CCOc1ccc2c(n1)CCN(C(=O)Nc1cc(C)cc(C)c1)C2 4.94%
O=C1CC(c2ccccc2)N(C(=O)C2CC2)CCCN(C(=O)NCc2ccccc2)CCN1 (stereo unspecified) 1.82%
NC(=O)c1ccc(O[C@@H]2COCC[C@H]2NC(=O)Cc2ccc(O)cc2)cc1 -1.07%
Cc1ccccc1-c1cc(O)c2c(c1)CNCCO2 -6.93%
COc1ccc(NC(=O)Cc2c[nH]c3ncc(-c4ccccc4)cc23)cc1 -5.41% [at 57.5 µM]
CN1c2cccnc2CN(Cc2ccccn2)CC[C@H]1CO 14% [at 57.5 µM]
COc1ccnc(CN2CCC3(CC2)CN(CCOc2ccccc2)C(=O)O3)c1OC 0.365%
CC(c1ccc(-c2ccc(CC(=O)O)cn2)cc1)N1CCCCC1 (stereo unspecified) 6.38%
COCc1cc(C[C@@H]2CC[C@H](O)[C@@H](CNC(=O)C(C)(C)C)O2)no1 1.65% [at 57.5 µM]
CNC(=O)c1cc(-c2ccccc2O)cc2c1OCCN2Cc1cccnc1 -8.06% [at 57.5 µM]
CN1c2cc(C(=O)N3CCN(c4ccc(F)cc4)CC3)ccc2C(=O)N2CCCCCC21 (stereo unspecified) -2.29%
O=C1NCC2(CCCN(C(=O)CCc3ccc(=O)[nH]n3)C2)O1 (stereo unspecified) -0.727%
O=C(C[C@@H]1O[C@H](CNC(=O)c2ccccc2)[C@@H](O)[C@H]1O)Nc1ccccc1 -12.3% [at 57.5 µM]
Cc1cccc(CN2CCOc3c(O)cc(-c4ccccc4C)cc3C2)n1 -2.29%
O=C(Cc1c[nH]c2ncc(-c3ccccc3)cc12)NCCCn1ccnc1 -11.4% [at 57.5 µM]
CNC1CCN(c2ccc(-c3nc(CCCc4ccccc4)no3)cn2)CC1 3.3%
O=C(Cc1ccccc1F)N1CCC(Oc2ncccc2C(=O)N2CCCCC2)C1 (stereo unspecified) 0.899%
CC1(CNC(=O)c2cccs2)CCOCC1 -4.47%
Cc1nnc([C@H]2CCN(C3CCN(C)CC3)C2)o1 -9.47% [at 76.7 µM]
CC(=O)N1CCN(C(=O)c2nc(-c3ccccc3)cs2)CC(O)C1 (stereo unspecified) -0.806%

Entries shown so far that contain sulfur:
activity, negative = inhibition, inactive:
COCc1nc(-c2ccc(OC3CCN(S(=O)(=O)c4c(C)noc4C)C3)cc2)no1 (stereo unspecified) -2.86%
O=C(CC[C@H]1NC(=O)c2ccccc2NC1=O)Nc1nc2c(s1)CCC2 -5.89%
CC[C@H]1CN(S(=O)(=O)c2c(C)noc2C)CC[C@H]1CC(=O)NCc1ccco1 8.36% [at 57.5 µM]
C[C@@H](NC(=O)c1cccs1)c1onc(-c2ccc(F)cc2)c1C(=O)O -1.6% [at 57.5 µM]
CSCC(=O)N1C[C@@H](NC(=O)Nc2ccc(F)cc2F)C[C@H]1C(=O)N[C@@H](Cc1cccs1)C(N)=O -3.42%
COCCNS(=O)(=O)c1cc(C(=O)O)cc(-c2ccncc2)c1 -1.19%
COCC(=O)Nc1nc2c(s1)C[C@@H]1[C@](C)(CO)[C@H](O)CC[C@@]1(C)[C@@H]2CC(=O)NCc1cccnc1 1.09%
CC1(CNC(=O)c2cccs2)CCOCC1 -4.47%
CC(=O)N1CCN(C(=O)c2nc(-c3ccccc3)cs2)CC(O)C1 (stereo unspecified) -0.806%

Reprinted at random: 2 records from the list
activity, negative = inhibition, inactive:
C=CCO[C@@H]1C[C@H]2C(=O)Nc3ccc(-c4ccc(F)cc4F)cc3C(=O)N2C1 2.98% [at 57.5 µM]
CN1c2cccnc2CN(Cc2ccccn2)CC[C@H]1CO 14% [at 57.5 µM]
